The results in this text go back to patent US20230241259 (published 2023).

A short description of the data set: general procedure: Fmoc solid-phase peptide synthesis. The following applies: whole synthesis, analytical RP-HPLC, area under the curve.

As for PraYCQKFLWTCDSERPCCEGLVCRLWCKIN-NH2, the “final HPLC purity” value was 96%.
For the substance YCQKFLWTCDSERPCCEGLVCRLWCKIN-NH2, the “final HPLC purity” value (several disulfide bridges, sequence written open) is 96%.
